# Results taken from the supplement of paper PMC9015667.
# Counter-ions that a name gives are not always drawn. The list shows a part of the results. Repeats are few or missing, and single values can be far off.
# Tested on: UACC62P (parental melanoma line)
# Assay: reduction in cell viability relative to untreated/vehicle; higher = more growth inhibition
# Details: 200 nM; 72 h
row,Compound,reduction in cell viability [%]
1,C=CCNC1=C2C[C@@H](C)C[C@H](OC)[C@H](O)[C@@H](C)/C=C(\C)[C@H](OC(N)=O)[C@@H](OC)/C=C\C=C(/C)C(=O)NC(=CC1=O)C2=O [Tanespimycin],67.3
2,"CCCS(=O)(=O)Nc1ccc(F)c(C(=O)c2c[nH]c3ncc(-c4ccc(Cl)cc4)cc23)c1F [Vemurafenib (PLX4032, RG7204)]",42.8
3,Cc1cn2c(-c3cn[nH]c3)cnc2c(Nc2ccc(C(=O)N3CCNCC3)cc2F)n1,< 0
4,CCc1cc(/C(C)=N/OCc2ccc(C3CCCCC3)c(C(F)(F)F)c2)ccc1CN1CC(C(=O)O)C1,< 0
5,CCn1cc(C(=O)O)c(=O)c2cc(F)c(N3CCNC(C)C3)c(F)c21 (centres undefined) [Lomefloxacin hydrochloride],< 0
6,Cc1c(CN2CCN(C(=O)[C@H](C)O)CC2)sc2c(N3CCOCC3)nc(-c3cnc(N)nc3)nc12,40.7
7,N=C(N)c1ccc(OCCCCCOc2ccc(C(=N)N)cc2)cc1 [Pentamidine isethionate],< 0
8,CC(S)C(=O)NCC(=O)O (centres undefined) [Tiopronin],< 0
9,Nc1nc2[nH]cnc2c(=S)[nH]1 [Tioguanine],33.4
10,O=c1c(O)c(-c2cc(O)c(O)c(O)c2)oc2cc(O)cc(O)c12 [Myricetin],< 0
11,COc1ccccc1N1CCN(CC(O)COc2cccc3ccccc23)CC1 (centres undefined) [Naftopidil],< 0
12,CN1CC[C@H](c2c(O)cc(O)c3c(=O)cc(-c4ccccc4Cl)oc23)[C@H](O)C1 [Flavopiridol],84.2
13,COc1cc(OC)cc(-c2ccc3ncc4ccc(=O)n(-c5ccc(N6CCNCC6)c(C(F)(F)F)c5)c4c3c2)c1,< 0
14,O=C(O)C[C@H](O)C[C@H](O)/C=C/c1c(C2CC2)nc2ccccc2c1-c1ccc(F)cc1 [Pitavastatin calcium],< 0
15,C=C1/C(=C\C=C2/CCC[C@]3(C)[C@@H]([C@H](C)/C=C/C=C/C(O)(CC)CC)CC[C@@H]23)C[C@@H](O)C[C@@H]1O [Seocalcitol],2.94
16,CCOc1cc2ncc(C#N)c(Nc3ccc(F)c(Cl)c3)c2cc1NC(=O)/C=C/CN(C)C [Pelitinib],32.4
17,Cc1cccc(-c2[nH]ncc2-c2ccc3ncccc3n2)n1,< 0
18,CCC(=O)NCC[C@@H]1CCc2ccc3c(c21)CCO3 [Ramelteon],< 0
19,C[C@H](Cc1cc2c(c(C(N)=O)c1)N(CCCO)CC2)NCCOc1ccccc1OCC(F)(F)F [Silodosin],< 0
20,Nc1ccc(C(=O)Nc2cccc(-c3nc(N4CCOCC4)c4oc5ncccc5c4n3)c2)cn1,< 0

row,Compound,reduction in cell viability [%]
1,O=C(O)c1nc(=O)[nH]c(=O)[nH]1 [Oteracil potassium],< 0
2,Cc1cn([C@H]2C[C@H](N=[N+]=[N-])[C@@H](CO)O2)c(=O)[nH]c1=O [Zidovudine],2.88
3,Cc1cc2cc3c(C)cc(=O)oc3c(C)c2o1 [Trioxsalen],< 0
4,CCCCCCNC(=O)n1cc(F)c(=O)[nH]c1=O [Carmofur],0.75
5,OC[C@H]1O[C@@H](n2cnc3c2N=CNC[C@H]3O)C[C@@H]1O [Pentostatin],< 0
6,N[C@@H](Cc1cc(I)c(Oc2cc(I)c(O)c(I)c2)c(I)c1)C(=O)O [L-Thyroxine],< 0
7,CCCCCCCCCCCCCCCCCCOP(=O)([O-])OC1CC[N+](C)(C)CC1 [Perifosine],0.1
8,CN1C(=O)C[C@@H](C(=O)N[C@@H](Cc2c[nH]cn2)C(=O)N2CCC[C@H]2C(N)=O)NC1=O [Taltirelin],7.87
9,O=C(NC[C@H](O)CO)c1ccncc1Nc1ccc(I)cc1F [Pimasertib],62.6
10,CC(C)C[C@@H](C=O)NC(=O)[C@H](CC(C)C)NC(=O)[C@H](CC(C)C)NC(=O)OCc1ccccc1,61.9
11,NC(=O)N1c2ccccc2CC(=O)c2ccccc21 [Oxcarbazepine],< 0
12,O=C1NC(=O)/C(=C/c2ccc3nccc(-c4ccncc4)c3c2)S1,< 0
13,NC(=O)c1ccc2[nH]ccc2c1,< 0
14,C[C@H]1[C@H](NC(=O)/C(=N\OC(C)(C)C(=O)O)c2csc(N)n2)C(=O)N1S(=O)(=O)O [Aztreonam],< 0
15,CO[C@@H]1[C@@H](OC(N)=O)[C@@H](O)[C@H](Oc2ccc3c(O)c(NC(=O)c4ccc(O)c(CC=C(C)C)c4)c(=O)oc3c2C)OC1(C)C [Novobiocin sodium],< 0
16,C[C@@H]1CC(=O)NN=C1c1ccc(NN=C(C#N)C#N)cc1 [Levosimendan],< 0
17,Nc1cccc(S(=O)(=O)N2CCCN(S(=O)(=O)c3ccc4c(c3)OCCO4)CC2)c1,< 0
18,CCOC(=O)N1CCN(/[N+]([O-])=N/Oc2ccc([N+](=O)[O-])cc2[N+](=O)[O-])CC1,< 0
19,CC(C)NC[C@@H](C(=O)N1CCN(c2ncnc3c2[C@H](C)C[C@H]3O)CC1)c1ccc(Cl)cc1,< 0

# 2 compounds drawn at random from the list so far:
row,Compound,reduction in cell viability [%]
13,NC(=O)c1ccc2[nH]ccc2c1,< 0
1,O=C(O)c1nc(=O)[nH]c(=O)[nH]1 [Oteracil potassium],< 0
